From article PMC4847170, “Insights into the DNA-binding mechanism of a LytTR-type transcription regulator”

Experiments:
[1] = target: T1, YpdB (Escherichia coli) (UniProt P0AE39); experiment: SPR; details: reference flow cell, stated no binding; SPR (Biacore T200, SA chip): HBS-EP, 10 mM HEPES pH 7.4, 150 mM NaCl, 3 mM EDTA, 0.005% P20, 25 C; recombinant protein; protein details: N-terminal 6His; label: 5' biotin on strand 1
T1 sequence (looked up, limits assumed): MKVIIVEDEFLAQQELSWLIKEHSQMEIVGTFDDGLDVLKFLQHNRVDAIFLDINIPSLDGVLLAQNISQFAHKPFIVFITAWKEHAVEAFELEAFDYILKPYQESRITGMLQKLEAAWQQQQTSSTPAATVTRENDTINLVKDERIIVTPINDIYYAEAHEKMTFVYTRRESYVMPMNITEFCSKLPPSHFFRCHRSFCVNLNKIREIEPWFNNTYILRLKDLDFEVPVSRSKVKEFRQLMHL

[2] = target: T2, YpdB-D53E (Escherichia coli) (UniProt P0AE39); experiment: SPR; details: reference flow cell, stated no binding; SPR (Biacore T200, SA chip): HBS-EP, 10 mM HEPES pH 7.4, 150 mM NaCl, 3 mM EDTA, 0.005% P20, 25 C; recombinant protein; protein details: N-terminal 6His; label: 5' biotin on strand 1
T2 sequence (looked up, limits assumed): T1 sequence (looked up, limits assumed) with D53E

## GGGGCCTTTGCCGCTCAACCGCAAAACTGACCGCTTACATCCCTAAAATAACCACTCAGTTAGGGG (double strand) [PyjiY (YehT binding site control)]
[1]
  binding result: no binding
[2]
  binding result: no binding

Substitutions are numbered along the chain they refer to. For at least one entry, the source does not settle the construct or the ends of the probe. Negatives hold for the conditions tested. At least one verdict was read from the data and is not stated in words by the source. Protein sequences can lack the tags named with them.
